For one substance, binding results are on record in article doi:10.1101/2021.05.16.444380.

These are yes or no findings as the source states them, for the method shown. In cells and extracts the contact can be indirect. A yes stands for co-enrichment or nearness to the bait. Other partners may have been found. Where a sequence is shown, tags or fusion partners need not be part of it.

One test addresses T1, GFP-WtipN (Xenopus) (UniProt A9LS46).
T1 sequence: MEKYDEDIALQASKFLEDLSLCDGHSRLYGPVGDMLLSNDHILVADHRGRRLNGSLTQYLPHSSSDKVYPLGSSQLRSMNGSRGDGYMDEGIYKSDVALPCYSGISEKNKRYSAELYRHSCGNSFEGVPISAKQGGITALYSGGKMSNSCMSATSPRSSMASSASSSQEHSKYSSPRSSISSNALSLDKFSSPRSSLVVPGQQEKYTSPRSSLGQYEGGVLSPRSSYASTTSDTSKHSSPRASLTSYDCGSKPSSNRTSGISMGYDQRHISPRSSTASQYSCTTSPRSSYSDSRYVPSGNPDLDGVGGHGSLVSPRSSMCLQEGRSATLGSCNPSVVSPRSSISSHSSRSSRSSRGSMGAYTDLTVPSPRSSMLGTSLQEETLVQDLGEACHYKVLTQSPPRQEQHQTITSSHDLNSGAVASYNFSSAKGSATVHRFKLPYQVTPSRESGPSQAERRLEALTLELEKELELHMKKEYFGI
The experiment in a line: proximity labelling.

The next test concerns the target T2, myc-BirA-WtipN (Xenopus) (UniProt A9LS46).
T2 sequence: T1 sequence
The experiment in a line: proximity labelling.

Regarding Xenopus homologue of SSX2IP/ADIP/Msd1, the binding result with GFP-WtipN (Xenopus) and in the test with myc-BirA-WtipN (Xenopus) was “binds” in each case.
